# From the supplement of paper PMC8728848
# The other results are listed elsewhere or left out.
# B1: HA-00510 (Pseudomonas aeruginosa), Q02V39_PSEAB (protein)
# chain: GVPIVNIATPNGAGLSNNHFRDYNVGANGLILNNATGKTQGTQLGGIILGNPNLKGQAAQVILNQVTGGNRSTLAGYTEVAGQSARVIVANPHGITCQGCGFINTPRATLTTGKPIMDGQRLERFQVDGGDIVVEGAELNVGNLEQFDLITRSAKLNAKLYAKNLNIVTGRNDVQADSLQATPRAADGSEKPQLAIDSSALGGMYAGAIRLVGTEQGVGVKLAGDMAASGGDIRIDASGKLSLAQASSQGDLKIAAQAVELNGKTYAGGSAEIRSAEELVNRQS
# How the values were obtained:
# Assay in all cases: glycan array binding signal (z-score within array); higher = stronger binding
# Details in all cases: glycan notation: IUPAC condensed, linker removed
# Gal(a1-6)Glc = molecular target: Gal(a1-6)Glc
# Summary of the method: (§1)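 Glycan array data were curated from 3228 arrays in the Consortium for Functional Glycomics database and kept only where the protein sequence was available. Glycan names were converted to IUPAC-condensed notation, and columns mapping to the same glycan were averaged. The binding signal is a within-array Z-score, averaged across arrays of the same protein sequence at different concentrations or buffers and across linkers. Negative Z-scores can be read as non-binding.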
# Gal(b1-2)Gal = molecular target: Gal(b1-2)Gal
# Summary of the method: as §1
# Gal(b1-3)Gal = molecular target: Gal(b1-3)Gal
# Summary of the method: as §1
# Gal(b1-3)Gal(b1-4)GlcNAc = molecular target: Gal(b1-3)Gal(b1-4)GlcNAc
# Summary of the method: as §1
# Gal(b1-3)GalNAc = molecular target: Gal(b1-3)GalNAc
# Summary of the method: as §1
# [1] = molecular target: Gal(b1-3)GalNAc(a1-3)[Fuc(a1-2)]Gal(b1-4)Glc
# Summary of the method: as §1
# [2] = molecular target: Gal(b1-3)GalNAc(a1-3)[Fuc(a1-2)]Gal(b1-4)GlcNAc
# Summary of the method: as §1
# Gal(b1-3)GalNAc(b1-3)Gal = molecular target: Gal(b1-3)GalNAc(b1-3)Gal
# Summary of the method: as §1
# [3] = molecular target: Gal(b1-3)GalNAc(b1-3)Gal(a1-4)Gal(b1-4)Glc
# Summary of the method: as §1
# [4] = molecular target: Gal(b1-3)GalNAc(b1-4)Gal(b1-4)Glc
# Summary of the method: as §1
# [5] = molecular target: Gal(b1-3)GalNAc(b1-4)[Neu5Ac(a2-3)]Gal(b1-4)Glc
# Summary of the method: as §1
# Gal(b1-3)GlcNAc = molecular target: Gal(b1-3)GlcNAc
# Summary of the method: as §1
# [6] = molecular target: Gal(b1-3)GlcNAc(a1-3)Gal(b1-4)GlcNAc
# Summary of the method: as §1
# [7] = molecular target: Gal(b1-3)GlcNAc(a1-6)Gal(b1-4)GlcNAc
# Summary of the method: as §1
# Gal(b1-3)GlcNAc(b1-2)Man = molecular target: Gal(b1-3)GlcNAc(b1-2)Man
# Summary of the method: as §1
# [8] = molecular target: Gal(b1-3)GlcNAc(b1-2)Man(a1-3)[Gal(b1-3)GlcNAc(b1-2)Man(a1-6)]Man(b1-4)GlcNAc(b1-4)GlcNAc
# Summary of the method: as §1
# [9] = molecular target: Gal(b1-3)GlcNAc(b1-2)Man(a1-3)[Gal(b1-3)GlcNAc(b1-2)Man(a1-6)]Man(b1-4)GlcNAc(b1-4)[Fuc(a1-6)]GlcNAc
# Summary of the method: as §1
# [10] = molecular target: Gal(b1-3)GlcNAc(b1-2)Man(a1-3)[GlcNAc(b1-4)][Gal(b1-3)GlcNAc(b1-2)Man(a1-6)]Man(b1-4)GlcNAc(b1-4)GlcNAc
# Summary of the method: as §1
# [11] = molecular target: Gal(b1-3)GlcNAc(b1-2)[Gal(b1-3)GlcNAc(b1-6)]Man(a1-6)[Gal(b1-3)GlcNAc(b1-2)Man(a1-3)]Man(b1-4)GlcNAc(b1-4)GlcNAc
# Summary of the method: as §1
# [12] = molecular target: Gal(b1-3)GlcNAc(b1-3)Gal(b1-3)GlcNAc
# Summary of the method: as §1
# [13] = molecular target: Gal(b1-3)GlcNAc(b1-3)Gal(b1-4)Glc
# Summary of the method: as §1
# [14] = molecular target: Gal(b1-3)GlcNAc(b1-3)Gal(b1-4)GlcNAc
# Summary of the method: as §1
# [15] = molecular target: Gal(b1-3)GlcNAc(b1-3)Gal(b1-4)GlcNAc(b1-2)Man(a1-3)[Gal(b1-3)GlcNAc(b1-3)Gal(b1-4)GlcNAc(b1-2)Man(a1-6)]Man(b1-4)GlcNAc(b1-4)GlcNAc
# Summary of the method: as §1
# [16] = molecular target: Gal(b1-3)GlcNAc(b1-3)Gal(b1-4)GlcNAc(b1-2)[Gal(b1-3)GlcNAc(b1-3)Gal(b1-4)GlcNAc(b1-6)]Man(a1-6)[Gal(b1-3)GlcNAc(b1-3)Gal(b1-4)GlcNAc(b1-2)Man(a1-3)]Man(b1-4)GlcNAc(b1-4)[Fuc(a1-6)]GlcNAc
# Summary of the method: as §1
# [17] = molecular target: Gal(b1-3)GlcNAc(b1-3)Gal(b1-4)GlcNAc(b1-3)Gal(b1-4)GlcNAc(b1-2)[Gal(b1-3)GlcNAc(b1-3)Gal(b1-4)GlcNAc(b1-3)Gal(b1-4)GlcNAc(b1-6)]Man(a1-6)[Gal(b1-3)GlcNAc(b1-3)Gal(b1-4)GlcNAc(b1-3)Gal(b1-4)GlcNAc(b1-2)Man(a1-3)]Man(b1-4)GlcNAc(b1-4)[Fuc(a1-6)]GlcNAc
# Summary of the method: as §1
# [18] = molecular target: Gal(b1-3)GlcNAc(b1-3)Gal(b1-4)GlcNAc(b1-6)[Gal(b1-3)GlcNAc(b1-3)]Gal(b1-4)Glc
# Summary of the method: as §1
# [19] = molecular target: Gal(b1-3)GlcNAc(b1-3)Gal(b1-4)[Fuc(a1-3)]GlcNAc
# Summary of the method: as §1
# [20] = molecular target: Gal(b1-3)GlcNAc(b1-3)Gal(b1-4)[Fuc(a1-3)]GlcNAc(b1-6)[Gal(b1-3)GlcNAc(b1-3)]Gal(b1-4)Glc
# Summary of the method: as §1
# [21] = molecular target: Gal(b1-3)GlcNAc(b1-3)GalNAc
# Summary of the method: as §1
# [22] = molecular target: Gal(b1-3)GlcNAc(b1-6)Gal(b1-4)GlcNAc
# Summary of the method: as §1
# [23] = molecular target: Gal(b1-3)GlcNAc(b1-6)GalNAc
# Summary of the method: as §1
# [24] = molecular target: Gal(b1-3)GlcNAc(b1-6)[Gal(b1-3)]GalNAc
# Summary of the method: as §1
# Gal(b1-3)GlcNAc6S = molecular target: Gal(b1-3)GlcNAc6S
# Summary of the method: as §1
# [25] = molecular target: Gal(b1-3)[Fuc(a1-4)]GlcNAc
# Summary of the method: as §1
# [26] = molecular target: Gal(b1-3)[Fuc(a1-4)]GlcNAc(b1-2)Man
# Summary of the method: as §1
# [27] = molecular target: Gal(b1-3)[Fuc(a1-4)]GlcNAc(b1-2)Man(a1-3)[Gal(b1-3)[Fuc(a1-4)]GlcNAc(b1-2)Man(a1-6)]Man(b1-4)GlcNAc(b1-4)[Fuc(a1-6)]GlcNAc
# Summary of the method: as §1
# [28] = molecular target: Gal(b1-3)[Fuc(a1-4)]GlcNAc(b1-3)Gal(b1-3)[Fuc(a1-4)]GlcNAc
# Summary of the method: as §1
binder,measurement,setting,value
B1,glycan array binding signal (z-score),Gal(a1-6)Glc,-0.068
same,glycan array binding signal (z-score),Gal(b1-2)Gal,-0.657
same,glycan array binding signal (z-score),Gal(b1-3)Gal,-0.482
same,glycan array binding signal (z-score),Gal(b1-3)Gal(b1-4)GlcNAc,0.014
same,glycan array binding signal (z-score),Gal(b1-3)GalNAc,-0.011
same,glycan array binding signal (z-score),[1],0.868
same,glycan array binding signal (z-score),[2],-0.463
same,glycan array binding signal (z-score),Gal(b1-3)GalNAc(b1-3)Gal,-0.532
same,glycan array binding signal (z-score),[3],-0.424
same,glycan array binding signal (z-score),[4],-0.666
same,glycan array binding signal (z-score),[5],-0.652
same,glycan array binding signal (z-score),Gal(b1-3)GlcNAc,-0.882
same,glycan array binding signal (z-score),[6],0.282
same,glycan array binding signal (z-score),[7],0.129
same,glycan array binding signal (z-score),Gal(b1-3)GlcNAc(b1-2)Man,-0.118
same,glycan array binding signal (z-score),[8],-0.795
same,glycan array binding signal (z-score),[9],0.898
same,glycan array binding signal (z-score),[10],0.05
same,glycan array binding signal (z-score),[11],-0.555
same,glycan array binding signal (z-score),[12],-0.934
same,glycan array binding signal (z-score),[13],-0.043
same,glycan array binding signal (z-score),[14],0.366
same,glycan array binding signal (z-score),[15],-0.176
same,glycan array binding signal (z-score),[16],0.085
same,glycan array binding signal (z-score),[17],0.228
same,glycan array binding signal (z-score),[18],0.121
same,glycan array binding signal (z-score),[19],-0.321
same,glycan array binding signal (z-score),[20],-0.203
same,glycan array binding signal (z-score),[21],-0.262
same,glycan array binding signal (z-score),[22],-0.173
same,glycan array binding signal (z-score),[23],-0.335
same,glycan array binding signal (z-score),[24],-0.262
same,glycan array binding signal (z-score),Gal(b1-3)GlcNAc6S,0.585
same,glycan array binding signal (z-score),[25],0.41
same,glycan array binding signal (z-score),[26],0.057
same,glycan array binding signal (z-score),[27],-0.347
same,glycan array binding signal (z-score),[28],0.049

# An excerpt of these results, with tabs:
binder	measurement	setting	value
B1	glycan array binding signal (z-score)	[2]	-0.463
same	glycan array binding signal (z-score)	[6]	0.282
